According to PubChem BioAssay AID504834 (National Center for Advancing Translational Sciences (NCATS), 2011):
About 22,000 (6.9%) of roughly 320,000 compounds were called active. Inconclusive results, whose numbers are uncertain, are shown with a selection of clear calls. The call rests on the fitted dose curve; in most records, active means well fitted inhibition curve with a large enough effect; inconclusive means small, poorly fitted or top-dose-only effect, or another doubt; inactive means no such curve, though single readings can be large or run the other way. A potency beside an inconclusive call is a rough fit, not a confirmed value.

Assay: Primary qHTS for delayed death inhibitors of the malarial parasite plastid, 96 hour incubation
Conditions: P. falciparum luciferase reporter growth; series mostly up to 28.7 µM
Outline: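 Infected RBCs, 2% Hct / 0.05% parasitemia final; luciferase-reporter P. falciparum; cpd 96 h, 37 C, 5% CO2; luciferase detection reagent; luminescence.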
On the % scale 0 is the no-effect control and ±100 the full control effect; potency means the concentration at half of the fitted maximal effect.

Structure (SMILES) | Potency | activity change, negative = inhibition
NC(=O)CC(NC(=O)c1ccccc1)c1ccc(NC2CCCCC2)c([N+](=O)[O-])c1 (stereo not given) | inconclusive: 18.5 µM [inhibitor, single point] | 
CC(=O)c1ccc(OCCCC(=O)Nc2cc(S(=O)(=O)N(C)C)ccc2C)cc1 | inconclusive: 11.7 µM [inhibitor, single point] | 
O=[N+]([O-])c1ccc(OCc2cnc(Cl)s2)cc1 | inactive | 
CN(C)c1cccc(C(=O)N/N=C/c2ccsc2)c1 | inactive | 
C=CCN(CC(=O)NCc1ccc(F)cc1)C(=O)c1csnn1 | inactive | 
CS(=O)(=O)N1CCCC(C(=O)NCc2ccc(F)cc2)C1 (stereo not given) | inconclusive: 18.5 µM [inhibitor, single point] | 
CCOc1ccc(CN2CCN(Cc3ccc(C)o3)CC2CCO)cc1 (stereo not given) | inconclusive: 10.4 µM [inhibitor, single point] | 
COc1cccc(CCNC(=O)CC2C(=O)NCCN2Cc2ccc(C)o2)c1 (stereo not given) | inconclusive: 0.522 µM [inhibitor, full curve, poor fit] | 
O=C(CNCC(=O)Nc1ccc(F)c(F)c1F)Nc1ccc(F)c(F)c1F | inactive | 
O=C(NCCCN1CCCC1)Nc1cccc2ccccc12 | inconclusive: 5.22 µM [inhibitor, partial curve] | 
Cc1cc(NC(=O)COc2ccc(C)c(C)c2)no1 | inconclusive: 11.7 µM [inhibitor, single point] | 
Cc1ccc(C(=O)c2c(NC(=O)c3ccccc3)sc(C)c2C)cc1 | inconclusive: 3.29 µM [inhibitor, full curve, poor fit] | 
Cc1ccc(-n2nnnc2SCC(=O)NC2CCCc3ccccc32)cc1 (stereo not given) | inconclusive: 0.0037 µM [inhibitor, full curve, poor fit] | 
O=C(c1ccccc1)N1CCCCC(S(=O)(=O)c2ccc3ccccc3c2)C1=O (stereo not given) |  | inactive: -12.1% [at 5.75 µM]
O=C(Nc1ccc(NC(=O)c2cccs2)cc1)c1ccc(Br)o1 | inactive | 
O=C(C1=C[C@H](C2CC2)C[C@H](OCCCCO)O1)N1CCN(Cc2ccc3c(c2)OCO3)CC1 | inconclusive: 10.4 µM [inhibitor, single point] | 
Cc1cc(S(=O)(=O)NCCc2ccccc2)c(C)s1 | inactive | 
CCOC(=O)N1CCN(C(=O)c2ccc3c(SCC(=O)O)c4c(nc3c2)CCCC4)CC1 | active: 11.7 µM | 
COc1cc2c(cc1OC)C(SC)=NC1(CCCC1)C2 | inactive | 
COc1ccc(CNC(=O)CCNS(=O)(=O)c2ccc(C)cc2)cc1 | inconclusive: 10.4 µM [inhibitor, single point] | 
CCc1nn(C(C)C(=O)NCCN2CCCCCC2)c(=O)c2cc3occc3n12 (stereo not given) | inactive | 
Oc1cccc(O)c1O | inconclusive: 19 µM [inhibitor, single point] | 
Cc1ccc(S(=O)(=O)/N=C2/C=C(Sc3ncn[nH]3)C(=O)c3ccccc32)cc1 | inactive | 
CCOc1ccccc1-c1cc(-c2n[nH]c(=S)n2CC)c2ccccc2n1 | active: 1.65 µM | 
CCOC(=O)N1CCN(C(=O)CSc2nnc(-c3ccc(Cl)s3)o2)CC1 | inactive | 

Entries shown so far that contain two or more sulfur atoms:
Structure (SMILES) | Potency | activity change, negative = inhibition
Cc1cc(S(=O)(=O)NCCc2ccccc2)c(C)s1 | inactive | 
Cc1ccc(S(=O)(=O)/N=C2/C=C(Sc3ncn[nH]3)C(=O)c3ccccc32)cc1 | inactive | 
CCOC(=O)N1CCN(C(=O)CSc2nnc(-c3ccc(Cl)s3)o2)CC1 | inactive | 

More entries follow:

Structure (SMILES) | Potency | activity change, negative = inhibition
CSc1nnc(-c2ccccc2Cl)n1N | active: 10.4 µM | 
COC(=O)c1ccc(Cn2cnc3c(cnn3-c3ccc(C)c(C)c3)c2=O)o1 | inconclusive: 20.8 µM [inhibitor, partial curve, poor fit] | 
O=C(CSc1ccc(-c2ccc(F)cc2)nn1)N1CCCc2ccccc21 | inconclusive: 18.5 µM [inhibitor, single point] | 
N#Cc1ccccc1OCCOCCNC1CCCC1 | inactive | 
COC1=CC(=O)C[C@@H](C)[C@]12Oc1c(Cl)c(OC)cc(OC)c1C2=O | inactive | 
CCC(OC(=O)c1ccco1)C(=O)NCc1ccc2c(c1)OCO2 (stereo not given) | inactive | 
CCCS(=O)(=O)n1nc(-c2ccccc2)cc1N | active: 9.28 µM | 
CC1(C)C2CCC(C2)C1(C)NC(=O)CNCC1CCCCC1 (stereo not given) | inactive | 
Cc1ccccc1NC(=O)CSc1nc(-c2cccs2)nc2cc(=O)[nH]n12 | inactive | 
Cc1nc2ccccc2n1CC(=O)N/N=C/c1cccs1 | active: 2.33 µM | 
CCCCn1c(N)c(N(CC(C)C)C(=O)c2cccc(S(=O)(=O)N(C)c3ccc(C)cc3)c2)c(=O)[nH]c1=O | inconclusive: 11.7 µM [inhibitor, single point] | 
CN(C)CCNc1ncnc2sc(-c3ccccc3)cc12 | inconclusive: 18.5 µM [inhibitor, single point] | 
O=C(NCc1ccccc1Cl)C1CCCN(S(=O)(=O)c2cccc3nonc23)C1 (stereo not given) | inactive | 
O=C(OCc1c(F)cccc1Cl)c1cccc(S(=O)(=O)N2CCOCC2)c1 | inconclusive: 9.28 µM [inhibitor, single point] | 
Cc1cc(NC(=O)CCN2CCC(C)CC2)ccc1Br | inconclusive: 10.4 µM [inhibitor, single point] | 
COCC(=O)n1nc(-c2ccccc2)nc1NCc1ccc(N(C)C)cc1 | inconclusive: 0.262 µM [inhibitor, full curve, poor fit] | 
CC(C)c1cc(C(=O)NCc2cccnc2)no1 | inconclusive: 9.28 µM [inhibitor, single point] | 
CN(C)c1ccc(CN2CCCCC2)cc1 | inactive | 
COc1ccc(SC[C@H](C)CN2CC[C@H](C(C)(C)C)CCC2=O)cc1 | inconclusive: 13.1 µM [inhibitor, single point] | 
CN(CC(=O)Nc1c(Cl)cccc1Cl)C(=O)Cc1ccc2c(c1)CCC2 | inactive | 
N#Cc1ccc(NC(=O)CCc2ccc(S(=O)(=O)N3CCOCC3)cc2)cc1 | inconclusive: 10.4 µM [inhibitor, partial curve, poor fit] | 
Cc1cccc(C)c1NC(=O)/C(C#N)=C/c1ccsc1 | inconclusive: 13.1 µM [inhibitor, partial curve, poor fit] | 
CN1C(=O)/C(=C/c2ccccc2OCc2ccc(C(=O)O)cc2)NC1=S | inconclusive: 4.15 µM [inhibitor, single point] | 
COc1ccc(/C=N/NC(=O)c2nn(-c3ccc(Cl)cc3)c(=O)c3c(N)scc23)cc1 | active: 8.28 µM | 
O=C(Nc1ccccc1)C1=C[C@@H](C2CC2)C[C@@H](OCc2ccc(CO)cc2)O1 | inactive | 

Structure (SMILES) | Potency | activity change, negative = inhibition
CCCCCCCC(=O)NNC(=O)c1c(O)c2ccccc2n(CC)c1=O | inactive | 
CCOC(=O)N1CCC(NC(=O)c2cccc3c2C(=O)N(Cc2cccnc2)C3)CC1 | inconclusive: 0.0329 µM [inhibitor, full curve, poor fit] | 
O=C(c1cccc(Cl)c1)c1nn(-c2ccccc2)c(=O)cc1C(F)(F)F | active: 13.1 µM | 
Clc1ccc(-c2c[n+](Cc3ccc(Br)cc3)c3n2CCCCC3)cc1 | active: 0.0586 µM | 
O=C1c2oc3ccccc3c(=O)c2C(c2cccc(Br)c2)N1Cc1ccco1 (stereo not given) | active: 0.37 µM | 
O=C(N1CCN(Cc2ccc3c(c2)OCO3)CC1)C(Cl)(Cl)Cl | inconclusive: 2.94 µM [inhibitor, full curve] | 
CC(Sc1nnc(COc2ccc(Cl)cc2)n1Cc1ccco1)C(=O)N1CCNC1=O (stereo not given) | active: 8.28 µM | 
COC(=O)C1=C(c2cccc(OCc3ccccc3)c2)C[C@@H]2CC[C@H]1N2C(=O)NCc1ccccc1 | inconclusive: 0.928 µM [inhibitor, full curve, poor fit] | 
COc1cc(CC(=O)NC(c2ccccc2)c2ccccc2)cc(OC)c1OC | inconclusive: 10.4 µM [inhibitor, partial curve] | 
Cc1cc(C)cc(NC(=S)N(CCN(C)C)C(C)c2cccnc2)c1 (stereo not given) | inconclusive: 10.4 µM [inhibitor, single point] | 
CCCn1nc(NC(=O)C(C)C)c2cc3cc(OC)ccc3nc21 | inconclusive: 14.7 µM [inhibitor, single point] | 
Cc1sc(NC(=O)COc2ccccc2)c(C#N)c1-c1ccccc1 | inconclusive: 18.5 µM [inhibitor, single point] | 
COc1cc(/C=N/NC(=S)NC(C)C)ccc1OCC(=O)Nc1c(C)cc(C)cc1C | active: 13.1 µM | 
Cc1ccccc1C(=O)O/N=C(\N)Cc1cccs1 | inconclusive: 0.928 µM [inhibitor, full curve] | 
CC(=O)N/C(=C\c1cccc([N+](=O)[O-])c1)C(=O)NC(C)C | inactive | 
COc1ccccc1N=c1oc2cc(O)ccc2cc1C(N)=O | inactive | 
CCOc1ccc(NC(=O)c2ccc(NC(=O)c3cn4c5c(c(N6CCN(C)CC6)c(F)cc5c3=O)OCC4C)cc2)cc1 (stereo not given) | active: 2.62 µM | 
CC(CCc1ccccc1)NC(=S)NC1CCCCC1 (stereo not given) | inconclusive: 9.28 µM [inhibitor, partial curve, poor fit] | 
CCCCSc1nc2c(cc1C#N)CCC2 | inconclusive: 11.7 µM [inhibitor, partial curve] | 
COc1cc(C(=O)OCCCc2cc3ccccc3c(=O)o2)cc(OC)c1OC | inconclusive: 5.22 µM [inhibitor, single point] | 
N#Cc1c(NC(=O)CSc2nnnn2C2CCCCC2)sc2c1CCCC2 | inconclusive: 0.928 µM [inhibitor, partial curve, poor fit] | 
COc1ccc(CNc2ccc(C)cc2)cc1Br | inactive | 
N#C/C(=C\c1ccc(-c2ccc(C(=O)O)cc2)o1)C(=O)Nc1ccc(F)cc1 | active: 9.28 µM | 
Cc1ccc(CNC(=O)C(C)C2Sc3ccccc3NC2=O)cc1 (stereo not given) | inconclusive: 4.15 µM [inhibitor, partial curve, poor fit] | 
Cc1c(C)n2c(SCC(=O)NCc3ccc4c(c3)OCO4)nnc2[nH]c1=O | inconclusive: 6.57 µM [inhibitor, partial curve] | 
